# In US20030224400A1:
# Chains of the proteins cited; added tags and fusions are not shown. Lines headed by an entry give the natural chain unless they say otherwise; changes in a name come on top.
# UniProt Q9NS75: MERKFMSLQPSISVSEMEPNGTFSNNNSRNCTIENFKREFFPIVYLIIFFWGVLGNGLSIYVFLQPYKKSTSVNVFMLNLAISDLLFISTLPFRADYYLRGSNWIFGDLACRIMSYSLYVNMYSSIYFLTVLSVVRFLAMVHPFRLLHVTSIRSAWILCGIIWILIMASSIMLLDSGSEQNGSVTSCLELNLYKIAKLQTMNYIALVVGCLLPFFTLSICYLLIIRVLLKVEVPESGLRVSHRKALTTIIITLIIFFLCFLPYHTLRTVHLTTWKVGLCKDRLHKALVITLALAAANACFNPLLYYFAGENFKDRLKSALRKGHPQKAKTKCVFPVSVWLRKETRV
# No constants are given. Whether binding was seen depends on the method and setting. Some binding calls cover weakened binding; strength is not graded here.
# Target: HGPRBMY11 (human G-protein coupled receptor BMY11) (human) (UniProt Q9NS75)
# Experiment: phage display panning on CHO-K1 cells transfected with HGPRBMY11, after preadsorption on alphaVbeta3 integrin and parental cells; binding phage eluted and sequenced
row,Binder,binding
1,LFASSDWSSFPVLVF,binds
2,PLDWGLIPYLHFGSV,binds
3,THGFGHRVWSVPLRS,binds
